This is one part of the list.
How the values were obtained:
Assay in all cases: glycan array binding signal (z-score within array); higher = stronger binding
Settings in all cases: glycan notation: IUPAC condensed, linker removed
[1] = molecular target: GlcNAc(a1-4)Gal(b1-4)GlcNAc(b1-3)Gal(b1-4)[Fuc(a1-3)]GlcNAc(b1-3)Gal(b1-4)[Fuc(a1-3)]GlcNAc
Method in brief: (§1)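 The binding signal is a Z-score computed within each array and averaged over linkers. Arrays of the same protein sequence at different concentrations or buffers were also averaged together. Data originate from 3228 arrays in the Consortium for Functional Glycomics database, kept only where the protein sequence was available.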

[2] = molecular target: GlcNAc(a1-6)Gal(b1-4)GlcNAc
Method in brief: as §1

[3] = molecular target: GlcNAc(b1-2)Gal(b1-3)GalNAc
Method in brief: as §1

[4] = molecular target: GlcNAc(b1-2)Man(a1-3)[GlcNAc(b1-2)Man(a1-6)]Man(b1-4)GlcNAc(b1-4)GlcNAc
Method in brief: as §1

[5] = molecular target: GlcNAc(b1-2)Man(a1-3)[GlcNAc(b1-2)Man(a1-6)]Man(b1-4)GlcNAc(b1-4)[Fuc(a1-6)]GlcNAc
Method in brief: as §1

[6] = molecular target: GlcNAc(b1-2)Man(a1-3)[GlcNAc(b1-4)][GlcNAc(b1-2)Man(a1-6)]Man(b1-4)GlcNAc(b1-4)GlcNAc
Method in brief: as §1

[7] = molecular target: GlcNAc(b1-2)Man(a1-3)[GlcNAc(b1-4)][GlcNAc(b1-2)Man(a1-6)]Man(b1-4)GlcNAc(b1-4)[Fuc(a1-6)]GlcNAc
Method in brief: as §1

[8] = molecular target: GlcNAc(b1-2)[GlcNAc(b1-4)]Man(a1-3)[GlcNAc(b1-2)Man(a1-6)]Man(b1-4)GlcNAc(b1-4)GlcNAc
Method in brief: as §1

[9] = molecular target: GlcNAc(b1-2)[GlcNAc(b1-4)]Man(a1-3)[GlcNAc(b1-4)][GlcNAc(b1-2)Man(a1-6)]Man(b1-4)GlcNAc(b1-4)GlcNAc
Method in brief: as §1

[10] = molecular target: GlcNAc(b1-2)[GlcNAc(b1-4)]Man(a1-3)[GlcNAc(b1-4)][GlcNAc(b1-2)[GlcNAc(b1-6)]Man(a1-6)]Man(b1-4)GlcNAc(b1-4)GlcNAc
Method in brief: as §1

[11] = molecular target: GlcNAc(b1-2)[GlcNAc(b1-4)]Man(a1-3)[GlcNAc(b1-4)][GlcNAc(b1-2)[GlcNAc(b1-6)]Man(a1-6)]Man(b1-4)GlcNAc(b1-4)[Fuc(a1-6)]GlcNAc
Method in brief: as §1

[12] = molecular target: GlcNAc(b1-2)[GlcNAc(b1-6)]Man(a1-6)[GlcNAc(b1-2)Man(a1-3)]Man(b1-4)GlcNAc(b1-4)GlcNAc
Method in brief: as §1

[13] = molecular target: GlcNAc(b1-2)[GlcNAc(b1-6)]Man(a1-6)[GlcNAc(b1-2)Man(a1-3)]Man(b1-4)GlcNAc(b1-4)[Fuc(a1-6)]GlcNAc
Method in brief: as §1

[14] = molecular target: GlcNAc(b1-2)[GlcNAc(b1-6)]Man(a1-6)[GlcNAc(b1-2)Man(a1-3)][GlcNAc(b1-4)]Man(b1-4)GlcNAc(b1-4)GlcNAc
Method in brief: as §1

[15] = molecular target: GlcNAc(b1-2)[GlcNAc(b1-6)]Man(a1-6)[GlcNAc(b1-4)][GlcNAc(b1-2)Man(a1-3)]Man(b1-4)GlcNAc(b1-4)GlcNAc
Method in brief: as §1

GlcNAc(b1-3)Fuc = molecular target: GlcNAc(b1-3)Fuc
Method in brief: as §1

GlcNAc(b1-3)Gal = molecular target: GlcNAc(b1-3)Gal
Method in brief: as §1

[16] = molecular target: GlcNAc(b1-3)Gal(b1-3)GalNAc
Method in brief: as §1

B1: Flo1 (Saccharomyces cerevisiae), P32768 (protein)
chain: SGATEACLPAGQRKSGMNINFYQYSLKDSSTYSNAAYMAYGYASKTKLGSVGGQTDISIDYNIPCVSSSGTFPCPQEDSYGNWGCKGMGACSNSQGIAYWSTDLFGFYTTPTNVTLEMTGYFLPPQTGSYTFKFATVDDSAILSVGGATAFNCCAQQQPPITSTNFTIDGIKPWGGSLPPNIEGTVYMYAGYYYPMKVVYSNAVSWGTLPISVTLPDGTTVSDDFEGYVYSFDDDLSQSNCTVPDPSNY
- glycan array binding signal (z-score) [1]: 2.23
- glycan array binding signal (z-score) [2]: -0.009
- glycan array binding signal (z-score) [3]: 0.066
- glycan array binding signal (z-score) [4]: -0.005
- glycan array binding signal (z-score) [5]: 0.814
- glycan array binding signal (z-score) [6]: -0.631
- glycan array binding signal (z-score) [7]: 0.011
- glycan array binding signal (z-score) [8]: -0.459
- glycan array binding signal (z-score) [9]: -0.105
- glycan array binding signal (z-score) [10]: -0.728
- glycan array binding signal (z-score) [11]: 0.239
- glycan array binding signal (z-score) [12]: -0.185
- glycan array binding signal (z-score) [13]: -0.369
- glycan array binding signal (z-score) [14]: -0.782
- glycan array binding signal (z-score) [15]: -0.416
- glycan array binding signal (z-score) (GlcNAc(b1-3)Fuc): -0.347
- glycan array binding signal (z-score) (GlcNAc(b1-3)Gal): -0.023
- glycan array binding signal (z-score) [16]: -0.113
